Some of the results follow. Further columns of the screen follow, without active or inactive calls. Most of these compounds were active or inconclusive in the main read-out, so they are no random draw.

A short description of the experiment: inhibitors of insulin promoter-driven GFP, primary screen, imaging, TRM-6 cells (human fetal islet line), eGFP reporter, cell count (AID 1273;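 also: cells exposed to compound for 48 h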). To be noted: measured here: cell count, toxicity, at 2 µM, reporter expression induced with tamoxifen.
Consider `CCC(NC(=O)NCc1ccccc1)(C(F)(F)F)C(F)(F)F`, for which the normalized cell count stood at 64.1%. Compound `CS(=O)(=O)NCc1ccc(C(=O)NCCOc2ccccc2)cc1` yielded a normalized cell count of 10.6%. The result for `O=C(O)c1ccc(CNC(=O)c2ccc(C(F)(F)F)cc2)cc1` reads 116%; that for `CCCc1nc2ccccc2c2nc(N)nn12`, 110%. As for `COc1ccc(N2CCN(C(=O)CCCn3c(=O)[nH]c4cc(Cl)ccc4c3=O)CC2)cc1`, the normalized cell count was 90.5%.

`O=C(N1CCN(c2ccccn2)CC1)C(Cl)(Cl)Cl` came in with a normalized cell count of 138%. The same measure for `CC(C)(C)C(=O)NC(=S)NNC(=O)c1ccc(-c2ccccc2)cc1`: 80.7%; for `O=C(O)Cc1ccc(NS(=O)(=O)c2ccccc2Cl)cc1`: 88.5%. For `Cc1cc(NC(=O)c2ccc3c(c2)OCO3)no1`, the normalized cell count came to 69%. The same measure for `Clc1ccc2c(N/N=C/c3ccccc3Br)ccnc2c1`: 169%; for `CSc1ccc(NC(=O)N2CC=C(n3c(=O)[nH]c4ccccc43)CC2)cc1`: 83.3%. The result for `COc1cccc(NC(=O)Cc2ccccc2)c1` reads 111%; that for `COC(=O)c1c(C)oc2ccc(NS(=O)(=O)c3cc(OC)ccc3OC)cc12`, 110%. Take `Cc1cc(C)c(-c2c(O)c3cnn(-c4ccccc4)c3[nH]c2=O)c(C)c1`: the normalized cell count was found to be 149%. The same measure for `COCCNC(=O)CCCn1c(=O)c2cc(OC)c(OC)cc2n(CC(=O)NCCC2=CCCCC2)c1=O`: 83.5%; for `COc1ccc(N2C(=O)c3ccc(C(=O)OC(C)C)cc3C2=O)cc1`: 37.2%.

Regarding `Cc1ccc(S(=O)(=O)N(CCC(=O)O)c2ccccc2)cc1`, the normalized cell count was 146%. The same measure for `CCOC(=O)C1=NOC2C(=O)N(c3ccc(Cl)cc3Cl)C(=O)C12` (stereo unspecified): 212%; for `C/C(=N\NC(=O)CCCNc1ccc(C)cc1)c1ccccn1`: 115%. The same measure for `N#Cc1sc2nc3c(cc2c1N)CCCC3`: 126%.

`COc1cc(Cl)ccc1NC(=O)COc1ccccc1C(=O)N1CCN(c2ccc(O)cc2)CC1` had a normalized cell count of 56%. For the compound `CCN(CC)S(=O)(=O)c1ccc(C(=O)C(C#N)c2ccccn2)cc1` (stereo unspecified), the normalized cell count stood at 71.3%. Consider `CCN(CC)S(=O)(=O)c1ccc2c3c(cccc13)C(=O)N2`, for which the normalized cell count was 156%. The result for `COc1ccccc1C(=O)NNC(=O)c1nn(Cc2ccccc2)c(=O)c2ccccc12` reads 56.2%. As to `O=C(CCCCCn1c(=S)[nH]c2cc3c(cc2c1=O)OCO3)N1CCN(Cc2ccccc2)CC1`, the normalized cell count is 151%. The result for `CCOC(=O)N1N=C(c2ccccc2)CC1(O)C(C)(F)F` (stereo unspecified) reads 121%; that for `CC(NC(=O)Cc1cccs1)c1ccc2c(c1)OCO2` (stereo unspecified), 123%. The same measure for `CC(C)c1nnc(NC(=O)C2CCCN2C(=O)Nc2ccccc2[N+](=O)[O-])s1` (stereo unspecified): 63.9%; for `Cc1cc2nc(CCN3CCOCC3)n(S(=O)(=O)c3ccc(C(C)(C)C)cc3)c2cc1C`: 72.9%; for `COc1ccc(OC)c2[nH]c(=O)c(CCNC(=O)c3ccc(Br)o3)cc12`: 123%. The result for `COC(=O)N/N=C\c1cc(Br)ccc1OCc1ccccc1` reads 110%. Turning to `O=C(NCCCn1ccnc1)Nc1ccc(Cl)cc1`, the normalized cell count amounted to 81.5%. The result for `COc1ccc(OC)c(C(=O)c2ccccc2)c1` reads 25.4%; that for `COc1cccc(C2=NO[C@@H]3C(=O)N(c4ccc5c(c4)OCCO5)C(=O)[C@H]23)c1OC`, 122%. The result for `COCCNC(=O)Cn1c(=O)n(Cc2ccco2)c(=O)c2ccccc21` reads 82.7%; that for `Cc1cccc(C2=NNC(=O)C(c3ccc(Cl)cc3)C2)c1` (stereo unspecified), 23.4%; that for `COc1cccc(NC(=O)CNC(=O)c2ccc(F)cc2)c1`, 137%.

The compound `CCC1(CC)NC(=O)NC1=O` had a normalized cell count of 103%. For `Nc1nc(SCC(=O)N2CCc3ccccc3C2)[nH]c(=O)c1-c1ccccc1`, the normalized cell count worked out at 51.9%.

The compound `COc1ccc(CNC(=O)c2cnn3c(C(F)F)cc(C)nc23)cc1` displayed a normalized cell count of 107%.

`O=C(NCCO)c1ccc2[nH]c3c(c2c1)CCCC3`: the normalized cell count worked out at 120%. With `CN(C)c1nc(Cl)nc(NCCOc2ccccc2)n1`, the normalized cell count stood at 73.4%. The result for `c1cc(CNC2=NCCCCC2)ccn1` reads 162%; that for `Clc1ccc(-c2csc(N3CCOCC3)n2)cc1`, 114%; that for `CC(C)CCNC(=O)NC(=O)COC(=O)C1=COCCO1`, 47.5%. The same measure for `CCOC(=O)N1CCN(C(=O)CSc2ccc(-c3ccncc3)nn2)CC1`: 105%. The same measure for `COc1c(S(=O)(=O)N2CCN(c3ccc(F)cc3)CC2)ccc(Cl)c1Cl`: 55.9%; for `CCOCCCNC(=O)c1cn(CC(C)C)c(=O)c2cc(OC)c(OC)cc12`: 95.5%; for `CCN(CC)S(=O)(=O)c1ccc(C(=O)NCc2ccc3c(c2)OCO3)cc1`: 70.1%. Regarding `CC(NC(=O)c1ccco1)C(c1cccs1)N1CCN(c2ccccc2)CC1` (stereo unspecified), the normalized cell count came to 140%. The result for `CCCCOC(=O)Nc1cc(C(=O)OC)ccc1C(=O)OC` reads 95.1%; that for `Nc1ccccc1-c1nc2ccccc2[nH]1`, 142%.

`Brc1ccc(N=C/C=C/C=C/Nc2ccc(Br)cc2)cc1` returned a normalized cell count of 73%. `Cc1[nH]c2ccccc2c1/C=N/NC(=O)Nc1ccccc1` registered a normalized cell count of 184%.

In turn, `CCOC(=O)c1cnc(-c2ccccc2)nc1N` gave a normalized cell count of 142%. `Cn1c(=O)c2c(nc(SCC(=O)NCc3ccc4c(c3)OCO4)n2Cc2ccc(F)cc2)n(C)c1=O` came in with a normalized cell count of 107%. The result for `COc1ccc(NC(C)=O)cc1C` reads 82.2%. As to `Cc1ccc(NC(=O)c2oc3ccc(S(=O)(=O)N4CCC5(CC4)OCCO5)cc3c2C)cc1C`, the normalized cell count amounted to 121%. The result for `O=C(Nc1c2c(nc3ccccc13)CCCC2)c1ccccc1F` reads 55.8%; that for `COc1ccc(CNC(=O)Cn2cncn2)cc1OC`, 119%. The result for `COc1cc(CC(=O)OCC(=O)Nc2sccc2C(N)=O)cc(OC)c1OC` reads 84%; that for `C(=C\c1nc(-c2cccnc2)no1)/c1ccccc1`, 100%; that for `c1cn(CC2(Cn3ccnc3)COC2)cn1`, 63.2%. For `O=[N+]([O-])c1cccc(/C=N/Nc2nc(N3CCCCC3)nc(N3CCCCC3)n2)c1`, the normalized cell count was determined as 125%.

For the compound `Cc1ccc(CNc2ccc(N3CCOCC3)cc2)s1`, the normalized cell count was determined as 115%. The same measure for `CC(=O)c1sc2nc(C)cc(C)c2c1N`: 91.3%; for `CCCCN(CCCC)S(=O)(=O)c1c(C)[nH]c(=O)[nH]c1=O`: 90.1%; for `CC(C)Nc1nc(NC(C)C)nc(N(C)C(N)=O)n1`: 112%. The result for `CC(NC(=O)c1cc(-c2ccccc2)on1)c1ccccc1` (stereo unspecified) reads 103%; that for `CCOC(=O)C1(C)C=C(Nc2ccccc2)C(=O)N1c1ccccc1` (stereo unspecified), 106%; that for `CCOC(=O)c1cc(C(C)C)sc1NC(=O)COC(=O)CCS(=O)(=O)c1ccccc1`, 115%. For the compound `O=C(CN1C(=O)C2CC=CCC2C1=O)Nc1ccc(S(=O)(=O)N2CCOCC2)cc1` (stereo unspecified), the normalized cell count came out at 23.4%. The same measure for `Cc1ccc(-n2c(=O)[nH]c3c(C(N)=O)nc(CC(C)C)nc32)cc1`: 75.9%. The same measure for `Cc1cc(S(=O)(=O)N2CCCC2)ccc1OCC(=O)N1CCOCC1`: 105%; for `COc1ccc(-c2cn3cc([N+](=O)[O-])ccc3n2)cc1OC`: 102%; for `C=CCn1c(SCC(=O)NCc2ccc3c(c2)OCO3)nnc1-c1cccnc1`: 38.9%.

`C#CCSc1nc2ccccc2n1C(=O)c1ccc(S(=O)(=O)N2CCCCC2)cc1` had a normalized cell count of 76.5%. The result for `COc1ccc2cc(C(=O)OC(C)C)sc(=O)c2c1OC` reads 48.5%. The result for `COc1cc2[nH]c(=S)nc(NCCC(C)C)c2cc1OC` reads 162%; that for `O=C(NCc1ccccc1)N1CCC(n2cnc3cc(F)ccc32)CC1`, 110%. In turn, `CCN1CCN(CC(=O)Nc2c(C(=O)OC)[nH]c3cccc(Cl)c23)CC1` gave a normalized cell count of 93.6%.

For `COc1ccc(-c2cc(C(F)(F)F)nc(SCCC(=O)N3CCCC3)n2)cc1`, the normalized cell count came out at 137%.

In turn, `O=C(O)CC(c1ccccc1)n1cccc1` (stereo unspecified) displayed a normalized cell count of 102%. The result for `Cc1ccc(NS(=O)(=O)c2ccc3c(c2)NC(=O)CC(=O)N3)cc1C` reads 95.2%; that for `Cc1ccc(C2C(=O)N(C3CCC(C)CC3)CC(=O)N2C2CCCC2)cc1` (stereo unspecified), 76.8%; that for `C/C(=N\NC(=O)c1ccn(C)n1)c1ccc(NC(=O)C2CCCC2)cc1`, 109%. The same measure for `Nc1ccccc1S(=O)(=O)c1ccccc1N`: 139%; for `Nn1c(SC/C=C/c2ccccc2)nnc1-c1ccncc1`: 129%; for `CCOC(=O)C1(C)/C(=N/Nc2ccccc2Cl)C(=O)C(=O)N1c1ccccc1` (stereo unspecified): 151%.

Compound `CCOc1ccc(C2NC(=O)C(C#N)=C(S)N2c2ccc(OC)cc2)cc1OC` (stereo unspecified) gave a normalized cell count of 20%. The same measure for `Cc1cc(C)cc(-n2nc(C)cc2N)c1`: 130%; for `CC(=O)c1c(C)nc2cc(Cl)ccc2c1N`: 171%. The result for `C=CCN1C(=NC(=O)CCCC(=O)O)SC2CS(=O)(=O)CC21` (stereo unspecified) reads 114%; that for `CC(C)C(=O)Nc1ccc([N+](=O)[O-])c(C(F)(F)F)c1`, 123%; that for `COc1ccc(C(=O)COc2ccc(NC(C)=O)cc2)cc1`, 120%. The result for `CCc1ccc(N2CC(C(=O)OC)CC2=O)cc1` (stereo unspecified) reads 135%. In the case of `Cn1c(C(O)c2ccc3c(c2)OCO3)nc2ccccc21` (stereo unspecified), the normalized cell count is 70.4%. `Cc1c(N2C(=O)c3ccc(F)cc3C2=O)c(=O)n(-c2ccccc2)n1C` displayed a normalized cell count of 90.7%. The result for `CCN(CC)c1ccc(/C=N/Nc2nc(C)cc(=O)[nH]2)c(O)c1` reads 48%; that for `O=C(CSc1ncn[nH]1)Nc1cccc2ccccc12`, 73.5%. In turn, `N#C/C(=C\c1cn[nH]c1-c1ccc(Cl)cc1)C(=O)NC1CC1` showed a normalized cell count of 125%.

`O=C(O)CSc1ncn[nH]1`: the normalized cell count stood at 12.3%.

`CCCCNC(=S)N(C)/N=C/c1ccc(OCC(=O)Nc2c(C)cc(C)cc2C)c(OC)c1` showed a normalized cell count of 0%. Regarding `C[C@H]1O[C@H]1P(=O)(O)O`, the normalized cell count was determined as 96.7%. The result for `CC(C)Sc1nc2ccccc2[nH]1` reads 165%; that for `CCOC(=O)c1sc2nc(C)cc(C)c2c1N`, 123%; that for `COc1ccc2nc(NC(=O)c3cccc(S(=O)(=O)N4CCOCC4)c3)sc2c1`, 89.3%. The result for `Cc1cccnc1NC1CCCCC1` reads 88.6%; that for `CCOC(=O)CNNC(=O)Nc1ccc(Cl)c(Cl)c1`, 119%; that for `Cc1ccc(N2C=Nc3ccc(C)c4nc(C)cc2c34)cc1`, 131%. The result for `CC(C)NC(=O)CSc1nnc(-c2ccco2)n1N` reads 58.1%; that for `CCCCCN1N=C(C)CC1=O`, 51.1%; that for `CCN(CC)C(=O)c1ccc(NS(=O)(=O)c2ccccc2)cc1`, 50.9%. In the case of `COc1cccc(Oc2ccc(N/C=C/C(=O)C(C)(C)C)cc2)c1`, the normalized cell count is 105%. Compound `Cc1[nH][nH]c(=O)c1C(c1cc2c(cc1Br)OCO2)c1c(C)[nH][nH]c1=O` yielded a normalized cell count of 109%. The same measure for `CCOC(=O)c1sc2nc(-c3cccnc3)ccc2c1N`: 94.6%.

Values taken from PubChem BioAssay AID1273 (Columbia University Molecular Screening Center, 2008).
